Paper PMC10861631
Results are given in words; binding and its absence hold for the method and conditions named. Binding seen in cells or lysates may run through a third protein. Some results given as binding are weak or reduced against the parent protein; the word gives no strength. Where a sequence is shown, tags or fusion partners need not be part of it.

Chains of the proteins cited; added tags and fusions are not shown.
UniProt P11275: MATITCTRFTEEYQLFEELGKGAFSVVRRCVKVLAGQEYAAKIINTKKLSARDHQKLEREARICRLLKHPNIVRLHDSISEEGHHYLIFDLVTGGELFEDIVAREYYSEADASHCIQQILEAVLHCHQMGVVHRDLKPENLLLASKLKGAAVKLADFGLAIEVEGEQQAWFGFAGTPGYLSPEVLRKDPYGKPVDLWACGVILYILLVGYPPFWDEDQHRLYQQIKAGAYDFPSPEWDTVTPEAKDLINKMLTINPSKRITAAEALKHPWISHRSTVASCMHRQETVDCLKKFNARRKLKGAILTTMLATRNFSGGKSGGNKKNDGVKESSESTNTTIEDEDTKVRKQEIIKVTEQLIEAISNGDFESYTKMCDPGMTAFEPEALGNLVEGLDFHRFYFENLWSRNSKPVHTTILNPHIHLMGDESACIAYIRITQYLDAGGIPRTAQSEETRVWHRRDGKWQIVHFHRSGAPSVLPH

Molecular target: T1, mRFP-tagged Shank1 N-terminus (SPN + Ank domains, residues 72-555) (human) (UniProt Q9Y566)
T1 sequence: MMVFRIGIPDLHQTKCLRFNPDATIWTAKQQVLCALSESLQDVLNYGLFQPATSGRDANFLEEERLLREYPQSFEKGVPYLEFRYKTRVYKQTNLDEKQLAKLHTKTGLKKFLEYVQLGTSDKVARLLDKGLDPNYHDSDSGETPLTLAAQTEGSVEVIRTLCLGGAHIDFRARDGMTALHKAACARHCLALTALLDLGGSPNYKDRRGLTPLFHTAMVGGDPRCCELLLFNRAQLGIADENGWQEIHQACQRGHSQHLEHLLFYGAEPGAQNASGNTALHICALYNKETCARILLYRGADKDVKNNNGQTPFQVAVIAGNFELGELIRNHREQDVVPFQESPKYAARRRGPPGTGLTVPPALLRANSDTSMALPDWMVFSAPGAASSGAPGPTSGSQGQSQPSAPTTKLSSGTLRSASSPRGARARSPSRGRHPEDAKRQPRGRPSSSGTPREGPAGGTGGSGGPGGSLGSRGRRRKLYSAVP
Test: co-IP; mRFP-tagged Shank N-termini coexpressed in 293T cells with T7-αCaMKII and/or HA-tagged G12V G-proteins; precipitated with RFP-trap beads, 2 h at 4 °C; IP buffer 50 mM Tris-HCl pH 8, 120 mM NaCl, 0.5% NP40, 1 mM EDTA; Western blot

binding: binds
Substance: T7-tagged αCaMKII (α-subunit of the calcium-/calmodulin dependent kinase II) (from UniProt P11275 1-478) (enzyme)
